Results are given in words; binding and its absence hold for the method and conditions named. In cells and extracts the contact can be indirect. Some binding calls cover weakened binding; strength is not graded here. For some assays here: Where a sequence is shown, tags or fusion partners need not be part of it.

The chains behind the UniProt entries cited, without tags or fusion partners.
UniProt P32480: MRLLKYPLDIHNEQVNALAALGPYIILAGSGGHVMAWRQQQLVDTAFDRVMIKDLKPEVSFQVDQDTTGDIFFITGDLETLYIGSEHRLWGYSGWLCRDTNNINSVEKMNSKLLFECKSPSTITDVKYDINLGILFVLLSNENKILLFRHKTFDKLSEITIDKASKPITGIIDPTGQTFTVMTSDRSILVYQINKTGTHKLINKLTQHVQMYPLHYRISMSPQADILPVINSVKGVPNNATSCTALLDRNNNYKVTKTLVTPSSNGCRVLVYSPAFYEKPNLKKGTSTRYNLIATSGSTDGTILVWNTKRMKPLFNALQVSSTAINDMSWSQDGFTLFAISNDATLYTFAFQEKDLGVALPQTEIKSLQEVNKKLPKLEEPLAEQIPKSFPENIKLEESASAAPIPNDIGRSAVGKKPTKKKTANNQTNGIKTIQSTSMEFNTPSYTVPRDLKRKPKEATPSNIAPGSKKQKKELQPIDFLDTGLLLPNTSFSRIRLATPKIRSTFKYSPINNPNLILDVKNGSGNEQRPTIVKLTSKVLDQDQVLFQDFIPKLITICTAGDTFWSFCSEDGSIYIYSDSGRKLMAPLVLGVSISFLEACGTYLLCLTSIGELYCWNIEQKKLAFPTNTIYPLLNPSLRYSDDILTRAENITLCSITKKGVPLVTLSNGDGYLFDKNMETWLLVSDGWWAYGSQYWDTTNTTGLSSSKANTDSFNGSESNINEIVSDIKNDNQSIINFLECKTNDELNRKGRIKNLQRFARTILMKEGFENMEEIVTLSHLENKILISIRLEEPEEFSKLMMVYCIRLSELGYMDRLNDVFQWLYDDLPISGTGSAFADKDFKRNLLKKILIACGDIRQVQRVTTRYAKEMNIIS
UniProt P47079: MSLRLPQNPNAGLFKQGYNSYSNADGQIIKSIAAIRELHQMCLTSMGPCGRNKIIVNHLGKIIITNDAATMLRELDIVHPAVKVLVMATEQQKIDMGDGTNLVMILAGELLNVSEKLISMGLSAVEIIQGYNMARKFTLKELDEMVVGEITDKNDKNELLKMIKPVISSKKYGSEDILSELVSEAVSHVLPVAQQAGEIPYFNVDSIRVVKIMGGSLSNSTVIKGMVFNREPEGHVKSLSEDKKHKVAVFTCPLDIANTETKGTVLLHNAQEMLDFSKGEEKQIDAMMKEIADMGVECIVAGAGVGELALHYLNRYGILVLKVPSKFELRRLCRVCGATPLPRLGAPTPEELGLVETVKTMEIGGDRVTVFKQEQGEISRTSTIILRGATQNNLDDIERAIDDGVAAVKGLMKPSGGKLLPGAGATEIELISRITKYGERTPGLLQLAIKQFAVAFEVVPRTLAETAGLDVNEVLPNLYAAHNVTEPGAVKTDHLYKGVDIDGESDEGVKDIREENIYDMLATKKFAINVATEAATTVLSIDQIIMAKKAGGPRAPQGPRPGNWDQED
UniProt P10591: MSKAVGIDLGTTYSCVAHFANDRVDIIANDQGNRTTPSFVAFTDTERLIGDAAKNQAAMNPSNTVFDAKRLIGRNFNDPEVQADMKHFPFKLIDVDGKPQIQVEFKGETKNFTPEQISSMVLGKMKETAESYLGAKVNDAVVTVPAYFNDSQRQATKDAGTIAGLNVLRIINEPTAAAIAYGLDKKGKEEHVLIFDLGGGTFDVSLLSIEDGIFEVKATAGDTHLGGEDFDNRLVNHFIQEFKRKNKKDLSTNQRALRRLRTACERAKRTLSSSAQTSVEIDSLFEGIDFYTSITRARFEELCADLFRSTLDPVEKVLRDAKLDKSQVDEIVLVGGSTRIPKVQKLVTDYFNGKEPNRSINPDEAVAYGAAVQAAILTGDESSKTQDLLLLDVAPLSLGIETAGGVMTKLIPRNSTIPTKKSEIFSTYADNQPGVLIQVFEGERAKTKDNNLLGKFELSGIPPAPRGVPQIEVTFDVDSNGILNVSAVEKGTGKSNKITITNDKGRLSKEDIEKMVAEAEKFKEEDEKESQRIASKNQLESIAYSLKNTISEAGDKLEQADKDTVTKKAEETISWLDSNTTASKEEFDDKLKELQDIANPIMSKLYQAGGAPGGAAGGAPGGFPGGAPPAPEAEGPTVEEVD

The target of assay [1] is Hir2 (immunoprecipitated from yeast) (S. cerevisiae) (UniProt P32480). Nature of the assay: co-IP; Co-IP of Hir1 and Hir2 from yeast followed by immunoblotting for chaperones (Fig 4C); beads and tag not told for this panel.
The target of assay [2] is Cct8 with an HA epitope tag at the carboxy terminus (S. cerevisiae) (UniProt P47079). The experiment in a line: co-IP; yeast extract (200 ug) on anti-HA magnetic beads, 4°C, 30 min; 50 mM Na-phosphate pH 8.0, 300 mM NaCl, 0.01% Tween-20; western blot. On the technique in general: Immunoblotting shows a protein as a band on a membrane.
The target of assay [3] is T1, Pcl7 with an HA epitope tag at the carboxy terminus (S. cerevisiae) (UniProt P40186).
T1 sequence: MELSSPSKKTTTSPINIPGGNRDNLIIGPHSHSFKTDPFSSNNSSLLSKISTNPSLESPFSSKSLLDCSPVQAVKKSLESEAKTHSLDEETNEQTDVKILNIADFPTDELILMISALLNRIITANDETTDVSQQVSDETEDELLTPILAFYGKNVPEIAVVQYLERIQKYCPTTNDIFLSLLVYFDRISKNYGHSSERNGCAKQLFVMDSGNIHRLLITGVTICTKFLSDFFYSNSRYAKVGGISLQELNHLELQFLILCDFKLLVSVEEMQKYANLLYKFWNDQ
The description is as above.

Assay [4] concerns the target T2, Ura8 with an HA epitope tag at the carboxy terminus (S. cerevisiae) (UniProt P38627).
T2 sequence: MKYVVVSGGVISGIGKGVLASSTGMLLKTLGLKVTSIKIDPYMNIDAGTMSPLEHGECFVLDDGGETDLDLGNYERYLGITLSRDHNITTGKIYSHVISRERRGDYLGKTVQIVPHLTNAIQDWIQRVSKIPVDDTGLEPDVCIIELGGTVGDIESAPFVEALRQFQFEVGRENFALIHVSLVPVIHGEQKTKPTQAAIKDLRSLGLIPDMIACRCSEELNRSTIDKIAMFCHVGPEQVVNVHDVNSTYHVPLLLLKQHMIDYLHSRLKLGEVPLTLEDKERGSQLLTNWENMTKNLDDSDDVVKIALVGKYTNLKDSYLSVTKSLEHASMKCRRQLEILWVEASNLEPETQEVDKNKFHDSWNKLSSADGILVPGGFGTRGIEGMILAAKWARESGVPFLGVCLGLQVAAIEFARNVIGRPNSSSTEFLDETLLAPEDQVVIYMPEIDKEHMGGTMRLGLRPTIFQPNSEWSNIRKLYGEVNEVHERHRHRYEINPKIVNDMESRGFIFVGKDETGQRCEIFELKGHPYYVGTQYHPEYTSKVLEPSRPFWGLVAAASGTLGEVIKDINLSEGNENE
Described as above.

The target of assay [5] is T3, Mtw1-FLAG (S. cerevisiae) (UniProt P39731).
T3 sequence: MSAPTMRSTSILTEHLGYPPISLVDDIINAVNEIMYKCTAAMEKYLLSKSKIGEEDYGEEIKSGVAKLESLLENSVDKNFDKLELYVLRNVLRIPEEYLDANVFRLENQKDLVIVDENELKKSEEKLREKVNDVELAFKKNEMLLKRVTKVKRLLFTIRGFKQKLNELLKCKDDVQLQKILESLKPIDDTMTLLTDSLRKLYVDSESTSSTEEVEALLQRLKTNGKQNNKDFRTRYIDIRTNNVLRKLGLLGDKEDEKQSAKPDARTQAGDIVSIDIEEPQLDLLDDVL
The experiment in a line: co-IP; yeast extract (200 ug) on anti-Flag M2 magnetic beads, 4°C overnight; 50 mM Na-phosphate pH 8.0, 300 mM NaCl, 0.01% Tween-20; eluted with 3x FLAG peptide; western blot.

The target in assay [6] is HIS-tagged Ssa1 (yeast Hsp70) (S. cerevisiae) (UniProt P10591). Nature of the assay: cross-linking; XL-MS: about 150 ug of His-Ssa1 complex purified from yeast (His-Trap), cross-linked with 5 mM DSSO, room temperature, 1 h; trypsin digest, LC-MS with MS2/MS3; filtered for cross-linked peptides with at least one Ssa1 peptide.

B1: Sse1 (endogenous) (protein, UniProt P32589 1-693)
chain: MSTPFGLDLGNNNSVLAVARNRGIDIVVNEVSNRSTPSVVGFGPKNRYLGETGKNKQTSNIKNTVANLKRIIGLDYHHPDFEQESKHFTSKLVELDDKKTGAEVRFAGEKHVFSATQLAAMFIDKVKDTVKQDTKANITDVCIAVPPWYTEEQRYNIADAARIAGLNPVRIVNDVTAAGVSYGIFKTDLPEGEEKPRIVAFVDIGHSSYTCSIMAFKKGQLKVLGTACDKHFGGRDFDLAITEHFADEFKTKYKIDIRENPKAYNRILTAAEKLKKVLSANTNAPFSVESVMNDVDVSSQLSREELEELVKPLLERVTEPVTKALAQAKLSAEEVDFVEIIGGTTRIPTLKQSISEAFGKPLSTTLNQDEAIAKGAAFICAIHSPTLRVRPFKFEDIHPYSVSYSWDKQVEDEDHMEVFPAGSSFPSTKLITLNRTGDFSMAASYTDITQLPPNTPEQIANWEITGVQLPEGQDSVPVKLKLRCDPSGLHTIEEAYTIEDIEVEEPIPLPEDAPEDAEQEFKKVTKTVKKDDLTIVAHTFGLDAKKLNELIEKENEMLAQDKLVAETEDRKNTLEEYIYTLRGKLEEEYAPFASDAEKTKLQGMLNKAEEWLYDEGFDSIKAKYIAKYEELASLGNIIRGRYLAKEEEKKQAIRSKQEASQMAAMAEKLAAQRKAEAEKKEEKKDTEGDVDMD
With B1, the binding result in assay [1], in assay [2], in assay [3], in assay [4], in assay [5] and in assay [6] was “binds” in each case.

B2: Ura8 (endogenous) (protein, UniProt P38627 1-578)
chain: T2 sequence
On to B2, for which the binding result in assay [6] was “binds”.

B3: Mtw1 (endogenous, MIND kinetochore complex component) (protein, UniProt P39731 1-289)
chain: T3 sequence
modifications: phosphorylation at Y86 (in the identified site of interaction)
For B3, in assay [6], the binding result was “binds”.

B4: Pcl7 (endogenous) (protein, UniProt P40186 1-285)
chain: T1 sequence
Consider B4, for which, in assay [6], the binding result is “binds”.

B5: Pim1 (endogenous, ATP-dependent yeast Lon protease) (enzyme, UniProt P36775 99-1133)
chain: KDDSTSQKKDEDVKIVPDEKDTDNDVEPTRDDEIVNKDQEGEASKNSRSSASGGGQSSSSRSDSGDGSSKQKPPKDVPEVYPQMLALPIARRPLFPGFYKAVVISDERVMKAIKEMLDRQQPYIGAFMLKNSEEDTDVITDKNDVYDVGVLAQITSAFPSKDEKTGTETMTALLYPHRRIKIDELFPPNEEKEKSKEQAKDTDTETTVVEDANNPEDQESTSPATPKLEDIVVERIPDSELQHHKRVEATEEESEELDDIQEGEDINPTEFLKNYNVSLVNVLNLEDEPFDRKSPVINALTSEILKVFKEISQLNTMFREQIATFSASIQSATTNIFEEPARLADFAAAVSAGEEDELQDILSSLNIEHRLEKSLLVLKKELMNAELQNKISKDVETKIQKRQREYYLMEQLKGIKRELGIDDGRDKLIDTYKERIKSLKLPDSVQKIFDDEITKLSTLETSMSEFGVIRNYLDWLTSIPWGKHSKEQYSIPRAKKILDEDHYGMVDVKDRILEFIAVGKLLGKVDGKIICFVGPPGVGKTSIGKSIARALNRKFFRFSVGGMTDVAEIKGHRRTYIGALPGRVVQALKKCQTQNPLILIDEIDKIGHGGIHGDPSAALLEVLDPEQNNSFLDNYLDIPIDLSKVLFVCTANSLETIPRPLLDRMEVIELTGYVAEDKVKIAEQYLVPSAKKSAGLENSHVDMTEDAITALMKYYCRESGVRNLKKHIEKIYRKAALQVVKKLSIEDSPTSSADSKPKESVSSEEKAENNAKSSSEKTKDNNSEKTSDDIEALKTSEKINVSISQKNLKDYVGPPVYTTDRLYETTPPGVVMGLAWTNMGGCSLYVESVLEQPLHNCKHPTFERTGQLGDVMKESSRLAYSFAKMYLAQKFPENRFFEKASIHLHCPEGATPKDGPSAGVTMATSFLSLALNKSIDPTVAMTGELTLTGKVLRIGGLREKAVAAKRSGAKTIIFPKDNLNDWEELPDNVKEGLEPLAADWYNDIFQKLFKDVNTKEGNSVWKAEFEILDAKKEKD
modifications: phosphorylation at S974 (on the Pim1 portion of the cross-linked peptide)
For the molecule B5, the binding result in assay [6] was “binds”.

B6: Ste11 (endogenous, MEK kinase) (enzyme, UniProt P23561 1-717)
chain: MEQTQTAEGTDLLIGDEKTNDLPFVQLFLEEIGCTQYLDSFIQCNLVTEEEIKYLDKDILIALGVNKIGDRLKILRKSKSFQRDKRIEQVNRLKNLMEKVSSLSTATLSMNSELIPEKHCVIFILNDGSAKKVNVNGCFNADSIKKRLIRRLPHELLATNSNGEVTKMVQDYDVFVLDYTKNVLHLLYDVELVTICHANDRVEKNRLIFVSKDQTPSDKAISTSKKLYLRTLSALSQVGPSSSNLLAQNKGISHNNAEGKLRIDNTEKDRIRQIFNQRPPSEFISTNLAGYFPHTDMKRLQKTMRESFRHSARLSIAQRRPLSAESNNIGDILLKHSNAVDMALLQGLDQTRLSSKLDTTKIPKLAHKRPEDNDAISNQLELLSVESGEEEDHDFFGEDSDIVSLPTKIATPKNWLKGACIGSGSFGSVYLGMNAHTGELMAVKQVEIKNNNIGVPTDNNKQANSDENNEQEEQQEKIEDVGAVSHPKTNQNIHRKMVDALQHEMNLLKELHHENIVTYYGASQEGGNLNIFLEYVPGGSVSSMLNNYGPFEESLITNFTRQILIGVAYLHKKNIIHRDIKGANILIDIKGCVKITDFGISKKLSPLNKKQNKRASLQGSVFWMSPEVVKQTATTAKADIWSTGCVVIEMFTGKHPFPDFSQMQAIFKIGTNTTPEIPSWATSEGKNFLRKAFELDYQYRPSALELLQHPWLDAHII
modifications: dimethylation on R305 (on the Ssa1-Ste11 cross-linked peptide)
On to B6, for which the binding entry in assay [6] is reported as “binds”.

The record behind these values is PMC9629621.
